# Test results as given in PubChem BioAssay AID1347075 (National Center for Advancing Translational Sciences (NCATS), 2019).
# The campaign covered roughly 400,000 compounds. About 5,500 (1.4%) were called active. The inconclusive results got no clear call from the source; some entries with a clear call stand among them for comparison. Calls come from the whole dose curve; as a rule, active = well fitted cell-killing curve with a large enough effect; inconclusive = small, poorly fitted or top-dose-only effect, or effect the other way; inactive = flat fitted curve, though single readings scatter. Potencies beside an inconclusive call are fits to weak or partial responses and may not hold up.
# Test: qHTS assay for MDR1-selective chemotherapeutics: Primary screen using the parental adenocarcinoma cell KB-3-1; note: nearly all actives have a fitted effect of over 60% in size
# Settings: KB-3-1 viability, CellTiter-Glo ATP luminescence, 72 h; activity change, negative = cytotoxic: at 46.1 µM (top of the series)
# Procedure, shortened: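 Cytotoxicity in the drug-sensitive parental line KB-3-1 was scored as loss of CellTiter-Glo luminescence following 72 h incubation with compound. Values come from curve fitting of normalized concentration-response data.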
# % is set by controls: 0 for no effect and ±100 for the full control effect; potency is the fitted concentration of half-maximal effect.
Compound,Potency,"activity change, negative = cytotoxic"
Oc1ccc(/C=N/Nc2nc(-c3ccc(Cl)cc3)cc(C(F)(F)F)n2)cc1,"inconclusive: 29.1 µM [cytotoxic, single point]",–
O=C1CC(=C(c2ccccc2)c2ccccc2)C(=O)N1CCN1CCN(c2cccc(Cl)c2)CC1,"inconclusive: 20.6 µM [cytotoxic, single point]",–
CCOC(=O)c1[nH]c(=O)[nH]c1CSc1nc(C)cc(C)n1,inactive,–
Cc1cccc2sc(N(CCCN(C)C)C(=O)CCc3ccccc3)nc12,"inconclusive: 29.1 µM [cytotoxic, single point]",–
CCOC(=O)CC(NC(=O)Cn1nnc(-c2ccccc2Cl)n1)c1ccc(OC)cc1 (configuration not stated),"inconclusive: 18.4 µM [cytotoxic, partial curve]",–
COc1ccc(-c2nnc(C3CCN(S(=O)(=O)c4cccc(Cl)c4)CC3)o2)cc1,"inconclusive: 20.6 µM [cytotoxic, single point]",–
CCCC(=O)Nc1ccccc1NC(=O)c1ccc(OCC)cc1,inactive,–
COc1cccc(C(=O)Nc2ccc(N3CCN(C(=O)c4cccs4)CC3)cc2)c1,active: 5.17 µM,–
COc1cc(-c2nc(SCC(=O)Nc3ccc4c(c3)OCO4)c(-c3ccccc3)[nH]2)cc(OC)c1OC,"inconclusive: 20.6 µM [cytotoxic, single point]",–
O=S1(=O)CCC(NC(=S)Nc2ccc3ccccc3c2)C1 (configuration not stated),inactive,–
COc1ccc2cc(-c3ccn[nH]3)ccc2c1,active: 7.31 µM,–
CC1(CCl)N([O-])C2=C(CCCC2)[N+]1=O (configuration not stated),"inconclusive: 16.4 µM [rising, partial curve]",–
O=C1/C(=C/c2cccc(Br)c2)SC(=S)N1CCC(=O)N(CCO)c1ccccc1,"inconclusive: 29.1 µM [cytotoxic, single point]",–
COc1cc(OC)cc(-c2c(C#Cc3ccsc3)c3cc(-c4cccc5[nH]ccc45)ccc3n2C)c1,"inconclusive: 0.206 µM [rising, full curve]",–
Oc1cc(NCc2ccc(F)cc2)cc2cccnc12,active: 6.51 µM,–
O=[N+]([O-])c1ccc(-c2csc(NN=C3CCCC3)n2)cc1,"inconclusive: 18.4 µM [cytotoxic, single point]",–
Cc1ccc(C(=O)N2CCN(c3ccc4c(c3)C3CC4CCN3C(=O)OCc3ccccc3)CC2)cc1 (configuration not stated),"inconclusive: 29.1 µM [cytotoxic, single point]",–
COc1ccc(OCCn2c(NC(=O)c3ccc(OC)cc3)nc3ccccc32)cc1,"inconclusive: 29.1 µM [cytotoxic, single point]",–
CCCCCCSc1ccc(-c2nc3ccc(Cl)cn3c2NC2CCCCC2)cc1,inactive,–
CC(C)n1ncc2c(C(=O)Nc3cccc(S(=O)(=O)N(C)C)c3)cc(C3CC3)nc21,"inconclusive: 29.1 µM [cytotoxic, single point]",–
CC1CCN(CC[S-])CC1.O.O.[Cl][Pt],active: 13 µM,–
CCCCN(C(=O)C1CCC(CNS(=O)(=O)c2cccc3nsnc23)CC1)c1ccccc1 (configuration not stated),"inconclusive: 29.1 µM [cytotoxic, single point]",–
COC(=O)c1nn(-c2ccccc2)c(=O)cc1Sc1ccc(Cl)cc1,–,inconclusive: -21.4%

Compound,Potency,"activity change, negative = cytotoxic"
Cc1ccc(C(=O)N/N=C/c2nc3ccccc3n2C)cc1,"inconclusive: 20.6 µM [cytotoxic, single point]",–
O=S(=O)(Nc1cccc2c1CCCC2)c1ccc(Cl)cc1,"inconclusive: 18.4 µM [cytotoxic, single point]",–
COc1ccc(N2CCN(C(CNS(C)(=O)=O)c3ccco3)CC2)cc1 (configuration not stated),–,inconclusive: 16.8%
C/C(=N\Nc1nc(C)cc(-c2ccccc2)n1)c1cccc(N)c1,"inconclusive: 18.4 µM [cytotoxic, partial curve]",–
CN(Cc1ccccc1)C(=O)c1[nH]cnc1C(=O)NCCCCCNC(=O)OC(C)(C)C,inactive,–
O[C@H]1C[C@H](c2ccc(Cl)cc2)N(Cc2cccs2)C[C@@H]1n1cc(-c2ccc(F)cc2)nn1,"inconclusive: 29.1 µM [cytotoxic, single point]",–
CCN1CCN(Cc2ccc(NC(=O)c3ccc(C)c(/C=C/c4cnc(Nc5cc(N6CCNCC6)nc(C)n5)cn4)c3)cc2C(F)(F)F)CC1,"inconclusive: 18.4 µM [cytotoxic, single point]",–
COc1ccccc1NC(=O)C1=C(C)Nc2nc(SC)nn2C1c1ccccc1Cl (configuration not stated),"inconclusive: 20.6 µM [rising, single point]",–
c1ccc(Cn2sc(=Nc3ccccc3)nc2-c2ccccc2)cc1,"inconclusive: 18.4 µM [rising, single point]",–
Cc1cccc(N2CCN(C(=O)c3ccc(S(=O)(=O)N(C)c4ccccc4)cc3)CC2)c1C,"inconclusive: 20.6 µM [cytotoxic, partial curve, poor fit]",–
CCCN(CC(=O)Nc1cc(Cl)ccc1Cl)C(=O)c1ccc(N2CCCC2=O)cc1,"inconclusive: 23.1 µM [cytotoxic, single point]",–
COc1cccc(-c2cc(C(F)(F)F)nc(NCCc3ccc(OC)c(OC)c3)n2)c1,–,inconclusive: 1.01%
O=C(c1cc(COc2c(F)cccc2F)on1)N1CCN(C2CCCCC2)CC1,inactive,–
COc1ccc2c(c1)OC(O)(C(F)(F)C(F)F)CC2=O (configuration not stated),"inconclusive: 18.4 µM [cytotoxic, single point]",–
CN(C)S(=O)(=O)c1cccc(C(=O)NCC(=O)NC2CCN(Cc3ccccc3)CC2)c1,–,inconclusive: -2.91%
COC(=O)CC1(CC(N)=O)SCCS1,"inconclusive: 29.1 µM [cytotoxic, single point]",–
CCCN(CCC)C(=O)Cn1c(=O)n(-c2cccc(C)c2)c(=O)c2c1c1cc(OC)ccc1n2C,inactive,–
COc1ccc2cc(C3C(C#N)=C(N)OC(C)=C3C(C)=O)c(Cl)nc2c1 (configuration not stated),inactive,–
Cc1c(C2(O)CCCCC2)[nH]c2cc(C(F)(F)F)ccc12,"inconclusive: 23.1 µM [cytotoxic, single point]",–
CN1CCN(CC(=O)Nc2c(C(=O)c3ccccc3)oc3ccccc23)CC1,inactive,–
COc1ccc(-c2cc(C(=O)N3CCN(c4ccc(F)cc4)CC3)no2)cc1,"inconclusive: 23.1 µM [cytotoxic, single point]",–
CS(=O)(=O)NNC(=O)c1sccc1OCc1ncc(C(F)(F)F)cc1Cl,inactive,–
COc1cccc2c1C(=O)c1c(O)c3c(c(O)c1C2=O)C[C@@](O)(C(=O)CO)C[C@@H]3O[C@H]1C[C@H](N)[C@@H](O)[C@H](C)O1,"inconclusive: 0.517 µM [cytotoxic, full curve, poor fit]",–

# Two successive records out of the list so far:
Compound,Potency,"activity change, negative = cytotoxic"
COc1ccccc1NC(=O)C1=C(C)Nc2nc(SC)nn2C1c1ccccc1Cl (configuration not stated),"inconclusive: 20.6 µM [rising, single point]",–
c1ccc(Cn2sc(=Nc3ccccc3)nc2-c2ccccc2)cc1,"inconclusive: 18.4 µM [rising, single point]",–

# Next part

Compound,Potency,"activity change, negative = cytotoxic"
Cc1ccc(-n2c(-c3ccc(Br)cc3)c[n+]3c2CCc2ccc4cccnc4c2-3)cc1,active: 2.59 µM,–
Cc1cccc(NC(=O)c2ccc(-n3c(C)nnc3C)cc2)c1,inactive,–
Nc1ccc(/C=C/c2nccc3ccccc23)cc1,"inconclusive: 20.6 µM [cytotoxic, partial curve]",–
Cc1ccc(-n2ncc3c(N4CCCCCC4)ncnc32)cc1Cl,inactive,–
Cc1ccc(OC(C)C(=O)N2CCCc3ccccc32)cc1 (configuration not stated),inactive,–
COc1ccc(-c2cc(C(F)(F)F)nc(SCC(=O)NCCCN3CCOCC3)n2)cc1,"inconclusive: 20.6 µM [rising, partial curve, poor fit]",–
Cc1cccc(-n2c(SCc3ccc(C#N)cc3)nnc2-c2c[nH]c3ccccc23)c1,"inconclusive: 29.1 µM [cytotoxic, single point]",–
Cc1ccc(NC(=O)C2CCN(S(=O)(=O)c3ccc4c(c3)NC(=O)C(C)S4)CC2)cc1C (configuration not stated),"inconclusive: 23.1 µM [cytotoxic, single point]",–
CCOCCCNC(=O)c1cc(=O)n(Cc2cccc(C)c2)c2ccccc12,"inconclusive: 18.4 µM [cytotoxic, single point]",–
C=CCn1nc(C(=O)N2CCOCC2)cc1-c1sc(NC(=O)c2ccccc2)nc1C,"inconclusive: 29.1 µM [cytotoxic, partial curve, poor fit]",–
CCCCNc1c(-c2ccc(OC)c(Sc3ccc(OC)cc3)c2)nc2cnccn12,"inconclusive: 18.4 µM [cytotoxic, partial curve, poor fit]",–
CCCC/C=C1/CCC(CN(C)C)C1=O (configuration not stated),"inconclusive: 29.1 µM [cytotoxic, single point]",–
CCC1(c2ccc(F)cc2)NC(=O)N(CC(=O)Nc2ccc(-c3nc4ccc(C)cc4s3)cc2)C1=O (configuration not stated),inactive,–
N#CC(C#N)=C(Nc1ccc(F)cc1)SCc1cccc(Br)c1,active: 10.3 µM,–
CC(NC(=S)NCCc1ccccc1)C(c1cccs1)N1CCN(Cc2ccccc2)CC1 (configuration not stated),"inconclusive: 29.1 µM [cytotoxic, single point]",–
O=C1SCCN1N=Cc1ccc([N+](=O)[O-])o1,"inconclusive: 29.1 µM [cytotoxic, single point]",–
Cc1ccc(CN(C(=O)COc2ccccc2[N+](=O)[O-])c2ccccn2)o1,inactive,–
O=[N+]([O-])c1ccc(S(=O)Cc2ccccc2)c([N+](=O)[O-])c1 (configuration not stated),"inconclusive: 29.1 µM [cytotoxic, single point]",–
CCOC(=O)C1=C(CSc2nc3ccccc3s2)NC(=O)NC1c1ccc(OC)cc1 (configuration not stated),"inconclusive: 20.6 µM [cytotoxic, single point]",–
O=C(c1ccccc1Br)N1N=C(c2ccccc2)CC1c1ccccc1F (configuration not stated),"inconclusive: 29.1 µM [cytotoxic, single point]",–
C=CCN(c1ccccc1)S(=O)(=O)c1ccc(Cl)c(C(=O)OCC(=O)c2[nH]c(C)c(C(C)=O)c2C)c1,"inconclusive: 0.0291 µM [rising, full curve]",–
